For two substances, binding results are on record in article PMC12561916.

The chains behind the UniProt entries cited, without tags or fusion partners.
UniProt O00264: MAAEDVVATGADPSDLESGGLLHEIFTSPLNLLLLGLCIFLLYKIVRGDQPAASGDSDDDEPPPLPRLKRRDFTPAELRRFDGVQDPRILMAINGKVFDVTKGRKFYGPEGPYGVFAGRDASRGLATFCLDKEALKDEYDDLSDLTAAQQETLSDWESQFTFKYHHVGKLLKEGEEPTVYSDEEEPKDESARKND
UniProt P08670: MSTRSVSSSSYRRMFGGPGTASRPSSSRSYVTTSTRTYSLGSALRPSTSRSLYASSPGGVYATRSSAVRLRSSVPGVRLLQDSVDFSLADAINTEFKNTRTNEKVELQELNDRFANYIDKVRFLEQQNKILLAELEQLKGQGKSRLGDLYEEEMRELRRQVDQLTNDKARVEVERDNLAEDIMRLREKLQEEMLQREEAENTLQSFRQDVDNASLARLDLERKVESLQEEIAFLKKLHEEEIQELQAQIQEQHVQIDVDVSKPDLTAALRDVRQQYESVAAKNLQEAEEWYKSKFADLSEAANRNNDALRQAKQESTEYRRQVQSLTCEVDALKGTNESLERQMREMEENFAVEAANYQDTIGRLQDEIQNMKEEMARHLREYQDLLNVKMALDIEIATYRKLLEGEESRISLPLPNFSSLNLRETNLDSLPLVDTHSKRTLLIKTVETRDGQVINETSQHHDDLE

Experiment [1] concerns the target FLAG-tagged PGRMC1 (progesterone receptor membrane component 1) (human) (UniProt O00264). Briefly: co-IP; HEK293T co-transfected with FLAG-PGRMC1 and HA-tagged VIM or truncated fractions for 48 h; lysed in RIPA buffer with protease and phosphatase inhibitors; anti-[…] (Flag) affinity gel overnight at 4 °C; blot with HA antibody.
For experiment [2] the target is unchanged. As to the kind of experiment: co-IP; 293T cells transfected with FLAG-PGRMC1 plasmid for 48 h; IP with anti-FLAG antibody or IgG control; blots for VIM and SPTBN1.

These are yes or no findings as the source states them, for the method shown. In cells and extracts the contact can be indirect. Some binding calls cover weakened binding; strength is not graded here.

“HA-tagged VIM, full length (from UniProt P08670 1-466)”: in experiment [1], the binding entry is “binds”.
Regarding “Vimentin (VIM), endogenous in HEK293T (from UniProt P08670 1-466)”, the binding result in experiment [2] is given as “binds”.
